The results in this text go back to PubChem BioAssay AID1794844 (National Center for Advancing Translational Sciences (NCATS), 2023).

The chains behind the UniProt entries cited, without tags or fusion partners. Where a name states a change or a piece, a line headed by the entry shows the natural chain unless it says otherwise.
UniProt C7C422: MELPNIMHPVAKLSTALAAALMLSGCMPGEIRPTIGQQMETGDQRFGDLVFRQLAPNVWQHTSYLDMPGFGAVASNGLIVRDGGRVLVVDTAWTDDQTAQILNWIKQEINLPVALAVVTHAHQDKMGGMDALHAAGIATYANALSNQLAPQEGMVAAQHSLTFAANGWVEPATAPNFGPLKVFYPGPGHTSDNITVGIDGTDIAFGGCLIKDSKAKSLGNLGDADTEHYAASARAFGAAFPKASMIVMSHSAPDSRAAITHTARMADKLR

Molecules are shown by their SMILES. Screen size: about 2,800 compounds; fewer than 10 were called active. About 7% were inconclusive and are not listed. The call rests on the fitted dose curve; in most records, active means well fitted inhibition curve with a large enough effect; inconclusive means small, poorly fitted or top-dose-only effect; inactive means no such curve, though single readings can be large or run the other way. This is one part of the list.

The target of the assay is Metallo-beta-lactamase type 2 (Klebsiella pneumoniae) (UniProt C7C422). In words: qHTS to identify inhibitors of the New Delhi Metallo-beta-lactamase (NDM): Nitrocefin screen against the machine-based learning selections. Further: % of control where 0% means no effect. As to conditions: NDM-1 enzyme, nitrocefin hydrolysis, absorbance 485 nm; activity, negative = inhibition: at the top concentration. Summed up: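 NDM-1 (2 nM final) in 50 mM HEPES pH 7.0, 1 uM Zn2SO4, 0.01% Tween20 was preincubated with compounds for >30 min. Nitrocefin (16.7 uM final) was read at 485 nm after 15 min, and meropenem (50 uM final) at 300 nm after 30 min.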
A general note: In qHTS, concentration-response curves come from the screen itself.
Turning to `Cc1ncc2n1C(=O)N(C1CCN(Cc3ccsc3)CC1)C2`, the “activity, negative = inhibition” value was inactive: 5.15% [at 57.5 µM]. Next, `COc1ccc(-c2nc3c(c(=O)[nH]2)CCN(C(=O)Nc2ccc4c(c2)CCC4)C3)cc1`: inactive: 1.8%; `CN1c2cc(C(=O)NCc3cccs3)ccc2C(=O)N2CCCCC21` (centres undefined): inactive: 0.854%; `COC(=O)[C@@H]1Cc2c([nH]c3ccccc23)[C@@H]2C[C@@H](NCCNC(C)=O)C[C@@H](c3cccc(Cl)c3)N12`: inactive: -8.34%. `Cc1cc(C)c(S(=O)(=O)N2CCCC(Cn3cc(CO)nn3)C2)c(C)c1` (centres undefined): the “activity, negative = inhibition” value was inactive: -3.86%. To `CC(c1cccc(-c2nc3c(cc2C(N)=O)CCC3)c1)N1CCCC1` (centres undefined) belongs inactive: -6.21%; to `COC(=O)[C@H](NC(=O)[C@@H]1[C@@H](NC(=O)Nc2cccc(SC)c2)CCN1C(=O)C=C(C)C)C(C)C`, inactive: -5.21%.

`O=C(CCn1nnc(-c2ccccc2)n1)N1CCCC2(CCNCC2)CC1`: the “activity, negative = inhibition” value was inactive: -7.4%.

On to `CC(=O)N1CCN(C(=O)c2cc(CC(C)C)[nH]c(=O)n2)CC(O)C1` (centres undefined), for which the “activity, negative = inhibition” value was inactive: -12.2%. `COc1ccc(CN2C(=O)[C@@H]3C[C@@H](O)CN3C3(CN(C(C)C)C3)C2=O)cc1`: the “activity, negative = inhibition” value is inactive: -6.04% [at 57.5 µM]. Regarding `Cc1cnc(C(=O)NC2CC(c3nnc(CO)n3C3CC3)C2)[nH]1` (centres undefined), the “activity, negative = inhibition” value was inactive: 4.16%. Next, `Cn1ccc(NC(=O)c2cnc3c(c2)N([S+](=O)([O-])c2cccnc2)CCC3)n1`: inactive: -2.93% [at 57.5 µM]; `O=C(O)CCC(=O)N1Cc2[nH]cnc2C[C@H]1C(=O)NC1CCCCC1`: inactive: -12.9% [at 57.5 µM]. To `O=C(c1ccccc1)N1CCNc2cnc(Nc3cccc(F)c3)nc2C1` belongs inactive: -1.91% [at 57.5 µM]; to `COc1ccc(-n2nc(C)c([C@@H]3C=C[C@@H](NC(=S)NCC(C)C)C3)c2C)cc1`, inactive: 262% [at 57.5 µM]. To `CCOCCN1C(=O)COC[C@@H]1[C@H](O)c1ccc(NC(C)=O)cc1` belongs inactive: 2.36% [at 57.5 µM]; to `O=C(Nc1ccc([C@H]2OCC(=O)N(C3CCOCC3)[C@@H]2CO)cc1)c1ccc(C(F)(F)F)cc1`, inactive: 2.8%. For the molecule `CCOc1cc(CN(C)C(=O)CC2C(=O)NCCN2Cc2ccccc2)ccc1OC` (centres undefined), the “activity, negative = inhibition” value was inactive: -9.59%.

Consider `CSCC(=O)N1C[C@@H](NC(=O)Nc2ccc(F)cc2F)C[C@H]1C(=O)N[C@H](Cc1ccccc1)C(N)=O`, for which the “activity, negative = inhibition” value is inactive: -0.0589%. On to `c1cncc(COc2cc3c(cn2)NCCN(Cc2ccc4[nH]ccc4c2)C3)c1`, for which the “activity, negative = inhibition” value is inactive: 3.77% [at 57.5 µM].

For the molecule `CC(C)(C)c1ccc(C(=O)N2CCCC(O)(CN3CCCC3)C2)cc1` (centres undefined), the “activity, negative = inhibition” value was inactive: 2.22%. Next, `Nc1ncc(-c2ccc(-c3cc(NC4CCCC4)nc4[nH]ccc34)cc2)[nH]1`: inactive: -0.586%; `COc1ccc(C(=O)N2CCn3c(nn(-c4ccc([N+](=O)[O-])cc4)c3=O)C2)cc1`: inactive: 2.85%; `CCC(=O)N1CCC(Cc2nc(-c3ccccc3)n[nH]2)CC1`: inactive: -6.53%. To `NS(=O)(=O)CCCC(=O)N1CCC(Cc2cccc(C(=O)O)c2)C1` (centres undefined) belongs inactive: -2.83%; to `O=C(Nc1ccc(Oc2ccccc2)cc1)O[C@@H]1CO[C@H]2[C@@H]1OC[C@@H]2NS(=O)(=O)c1ccc(Cl)cc1`, inactive: 2.65%; to `COc1cccc(CN2CCNc3cc(Nc4cccnc4)ncc3C2)c1`, inactive: 8.42% [at 57.5 µM]. On to `N#Cc1cccc(NC(=O)N2C[C@@H]3C[C@H](C2)c2ccc(-c4ccc(OC(F)(F)F)cc4)c(=O)n2C3)c1`, for which the “activity, negative = inhibition” value is inactive: 6.07%. Next, `CN1[C@@H](CCC(=O)N2CCOCC2)CNC(=O)[C@@H]2[C@H]1CCN2Cc1cccs1`: inactive: -1.64% [at 57.5 µM]; `Cc1nn(-c2ccccn2)c(C)c1[C@@H]1C=C[C@@H](NC(=O)NC(C)C)C1`: inactive: -1.77% [at 57.5 µM]; `CN1C[C@@H](NC(=O)C2CCCCC2)C[C@H]1c1nc(-c2ccc3c(c2)OCO3)no1`: inactive: -2.15% [at 57.5 µM]. As for `COCCN1CCN(C[C@@H]2C=C(C)[C@H](Cc3nnc(-c4cccnc4)o3)C[C@H]2C(C)C)CC1`, the “activity, negative = inhibition” value is inactive: -10.3%. `COc1ccc(C(=O)N2C[C@@H]3OCC(=O)N(Cc4nccn4C)[C@@H]3C2)cc1`: the “activity, negative = inhibition” value was inactive: -1.41% [at 57.5 µM]. Next, `CNS(=O)(=O)c1ccc(CN2CC3(CCNCC3)CC2C(=O)O)cc1` (centres undefined): inactive: -4.04%; `O=C1Nc2ccccc2CC12CCN(CC1CC1)CC2`: inactive: -4.6% [at 57.5 µM]; `NCCn1cc(C(=O)NCC(O)c2ccccc2C(F)(F)F)nn1` (centres undefined): inactive: 2.02%. To `COc1ccccc1-c1ccc2ncc(Nc3cccc(N[S+](C)(=O)[O-])c3)n2n1` belongs inactive: -17.2% [at 57.5 µM]; to `CC(=O)Nc1ccc(S(=O)(=O)N[C@H]2CO[C@H]3[C@@H]2OC[C@@H]3Nc2nccc(-c3cccs3)n2)cc1`, inactive: -0.807%; to `NS(=O)(=O)c1ccsc1C(=O)N1CCCC2(CCNCC2)CC1`, inactive: -9.98%. To `COCCN1CCCC(c2[nH]ccc2C(=O)NCCc2nc3ccccc3[nH]2)C1` (centres undefined) belongs inactive: 7.47%; to `NC(=O)c1cccc(-c2cc(-c3ccncc3)c3cncn3c2)c1`, inactive: -5.36% [at 57.5 µM]; to `COc1ccc(OC)c(CNC(=O)Cc2cccn2-c2ccc(C)cc2)c1`, inactive: -4.62%.

In the case of `O=C(NC1CCCc2c1[nH]c1ccc(F)cc21)c1ccncc1` (centres undefined), the “activity, negative = inhibition” value is inactive: 6.73%. With `C=CCNC(=O)N1CCC(O)(c2csc(CN3CCc4ccccc4C3)n2)CC1`, the “activity, negative = inhibition” value is inactive: -1.49% [at 57.5 µM]. To `CN1CCN(Cc2nc(C3(O)CCN(C(=O)CC(C)(C)C)CC3)cs2)CC1` belongs inactive: -0.771% [at 57.5 µM]; to `Cc1oc(C(O)c2cccc(O)c2)nc1C(=O)Nc1ccc2[nH]c(=O)oc2c1` (centres undefined), inactive: 364% [at 57.5 µM]; to `CCc1nc2c(c(-c3ccc(Cl)cc3)n1)CCN(Cc1ccc(F)cc1)CC2`, inactive: 1.11%. To `CS(=O)(=O)c1ccc(CN2C[C@@H]3C[C@H]2C(=O)N(Cc2ccc(OC(F)(F)F)cc2)c2ccccc2O3)cc1` belongs inactive: -2.68%; to `Oc1ccccc1CNC1(Cc2cc(-c3ccccn3)on2)COC1`, inactive: -19.9% [at 57.5 µM]; to `O[C@@H]1C[C@@H](c2nc(Cc3ccccc3)no2)N(Cc2cc3ccccc3o2)C1`, inactive: 0.0666% [at 57.5 µM]. To `O=C(NC[C@H]1Cn2c(-c3ccccc3)cnc2CO1)C1CCOCC1` belongs inactive: 8.62% [at 57.5 µM]; to `O=C1N[C@@H]2CCN(S(=O)(=O)c3cccc(F)c3)[C@@H]2C(=O)N1c1ccc(F)cc1`, inactive: -1.48% [at 57.5 µM]. Consider `O=C(COc1ccccc1)N1CCNc2cnc(Nc3cccc(F)c3)nc2C1`, for which the “activity, negative = inhibition” value is inactive: 3.79% [at 57.5 µM]. Next, `C#CCNC(=O)[C@@H]1Cc2cn(Cc3cc(C)on3)c3cccc(c23)[C@H](CC(C)C)N1`: inactive: 0.317% [at 57.5 µM]; `O=C(Nc1ccccc1)O[C@@H]1CO[C@H]2[C@@H]1OC[C@@H]2NC(=O)c1ccc(C(F)(F)F)cc1`: inactive: -7.3%. Regarding `CC(C)CNC(=O)c1ccnc(-c2nnc3ccc(Nc4ccccc4)nn23)c1`, the “activity, negative = inhibition” value was inactive: 3.28% [at 57.5 µM]. For `CC(=O)Nc1ccc(C(O)[C@H]2COCC(=O)N2Cc2ccccc2F)cc1` (some centres undefined), the “activity, negative = inhibition” value is inactive: 1.36% [at 57.5 µM]. `Cc1ccc(C2(O)CCN(CC(c3ccccc3)c3ccccc3)CC2)nc1`: the “activity, negative = inhibition” value was inactive: 47.5%. Turning to `O=C(NC1CCCCC1)[C@H]1O[C@H](CCN2CCN(Cc3ccccc3)CC2)CC[C@@H]1O`, the “activity, negative = inhibition” value was inactive: -3.05% [at 57.5 µM].
